Source: PubChem BioAssay AID504784 (Drosophila RNAi Screening Center, 2011)
Assay: 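Search for regulators of lipid droplet storage in oleate-fed fly cells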 (primary screen). Cells: Drosophila Kc167 embryonic cells. Reagents: long dsRNA against Drosophila genes, about 250 ng dsRNA per well. Time to read-out: 4 days. Treatment: cells fed 400 µM oleic acid bound to BSA. Read-out: 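Cells imaged and segmented; ratio of lipid droplet area to nuclear area, log-transformed, then normalised as a B-score over the screen; higher means more stored lipid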. Direction: droplet/nuclear area B-score: higher = more stored lipid (overstorage).
The deposit covers about 17,000 reagents; below is a random part of those that have a named target and a result. 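Each column is one replicate's B-score; the combined score over replicates was not deposited, so single values may mislead.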 The numbers tell different reagents against one gene apart. Names joined by + are all predicted targets of the reagent.

gene | dsRNA no. | droplet/nuclear area B-score, replicate 1 | droplet/nuclear area B-score, replicate 2 | droplet/nuclear area B-score, replicate 3
CG14662 | 1 | 0.503 | -0.355 | –
Tsen34 | 1 | 0.274 | 3.32 | –
yellow-c + CIAPIN1 | 1 | 1.73 | -1.34 | –
CG9536 | 1 | -0.743 | -1.26 | –
Syx1A | 1 | 0.137 | 0.969 | –
Syx1A | 2 | -0.866 | 0.383 | –
GC2 | 1 | 1.11 | 0.345 | –
CG9630 | 1 | 1.79 | 0.0132 | –
alphaTub85E | 1 | 1.33 | 1.18 | –
CG6785 | 1 | -0.353 | -0.52 | –
Ir52b | 1 | 1.08 | 2.17 | –
CG15820 | 1 | 0.587 | 0.334 | –
Cyp4ac3 | 1 | 3.95 | -0.753 | –
NKCC | 1 | -3.58 | 0.559 | –
NKCC | 2 | 2.84 | 1.59 | –
unc-4 | 1 | -1.32 | 0.928 | 0.247
unc-4 | 2 | -0.0841 | 0.428 | –
snk | 1 | -0.0325 | -0.14 | –
spz6 | 1 | -0.116 | -1 | –
CG34109 | 1 | -0.0312 | -1.97 | –
CG34109 | 2 | 1.92 | -0.262 | –
CG34109 | 3 | 1.43 | 0.379 | –
Nepl19 | 1 | 1.07 | -0.202 | –
CG6978 | 1 | 1.26 | -1.86 | –
CG14857 | 1 | -0.492 | -0.402 | –
pyd | 1 | 2.06 | -0.475 | –
pyd | 2 | -2.02 | 0.328 | –
pyd | 3 | -0.428 | -1.38 | –
pyd | 4 | 0.0564 | 0.702 | –
pyd | 5 | -1.85 | -0.606 | –
pyd | 6 | 3.29 | -0.649 | –
pyd | 7 | -2 | -0.0369 | –
pyd | 8 | -2.3 | 1.1 | –
pyd | 9 | 0.58 | 0.459 | –
CG16820 | 1 | 1.11 | 1.34 | –
SamDC | 1 | 0.262 | 0.669 | –
babo | 1 | -0.227 | 0.962 | –
CG34406 (retired record) | 1 | 0.762 | 0.943 | –
CG34406 (retired record) | 2 | -0.251 | -0.208 | –
CG13893 | 1 | 1.08 | 3.56 | –
GAA1 | 1 | -1.08 | -2.77 | 1.28
CG13917 | 1 | -0.797 | -2.95 | 0.102
Pp4-19C | 1 | -2.28 | -0.976 | –
Pp4-19C | 2 | -0.111 | -3.03 | –
Pp4-19C | 3 | 0.706 | -0.167 | –
Taf12L | 1 | -1.45 | 0.952 | –
Cyp4p3 | 1 | -0.703 | -0.28 | –
Muc68Ca | 1 | 0.0218 | 0.478 | –
Muc68Ca | 2 | 0.991 | 0.262 | –

Next part, starting with the last 5 of the part before.
gene | dsRNA no. | droplet/nuclear area B-score, replicate 1 | droplet/nuclear area B-score, replicate 2 | droplet/nuclear area B-score, replicate 3
Pp4-19C | 3 | 0.706 | -0.167 | –
Taf12L | 1 | -1.45 | 0.952 | –
Cyp4p3 | 1 | -0.703 | -0.28 | –
Muc68Ca | 1 | 0.0218 | 0.478 | –
Muc68Ca | 2 | 0.991 | 0.262 | –
CG13877 + pyx | 1 | -0.27 | -0.506 | –
CG17974 | 1 | 2.58 | 0.193 | –
Usp16-45 | 1 | -0.631 | 2.01 | -0.516
CG10175 | 1 | -0.137 | -1.33 | –
CG10175 | 2 | -0.0474 | -1.48 | –
CG10175 | 3 | -0.485 | 0.875 | –
RpL6 | 1 | 2.44 | 3.34 | –
RpL6 | 2 | -2.69 | 0.719 | –
CG13793 | 1 | -1.65 | 0.954 | –
papi | 1 | 1.35 | 0.0365 | –
CG32248 | 1 | 1.64 | 0.744 | –
ClC-a | 1 | -1.04 | -0.226 | –
ClC-a | 2 | -1.93 | -0.736 | –
ClC-a | 3 | 1.33 | 0.453 | –
Rgk1 (retired record) | 1 | 0.43 | 6.29 | –
Rgk1 (retired record) | 2 | -0.89 | 0.18 | –
Nup214 | 1 | -1.1 | -1.91 | –
Roc1a | 1 | -5.48 | -3.67 | –
CG4988 | 1 | -3.25 | -0.304 | –
CG15625 | 1 | -1.77 | 0.0489 | –
Srg1 | 1 | 1.98 | -0.0734 | –
mRpS31 | 1 | 1.92 | -0.264 | -0.338
Kots | 1 | -4.2 | -6.47 | –
CG2104 | 1 | 0.778 | 2.99 | –
Rab9 | 1 | 0.274 | -1.52 | –
CG15650 | 1 | 1.34 | -0.473 | –
QIL1 | 1 | -0.0202 | -0.798 | –
CG14556 | 1 | – | 0.939 | –
Trs31 | 1 | 0.974 | 2.68 | –
fd102C | 1 | 1.05 | 0.14 | –
CG6893 | 1 | 2.49 | 1.11 | –
Mpc1 | 1 | -4.03 | -1.73 | –
Iml1 | 1 | 0.0203 | – | –
alphaCOP | 1 | 4.8 | 9.06 | –
